# This is one part of the list. Shown are side measurements of this screen, not its main read-out; they come without a call. The list favours compounds with an active or inconclusive main result. Words in brackets tell the shape of the fitted curve; partial curves, single points and poor fits give uncertain potencies.
# Assay: IkB Signaling
# Conditions: ABC-DLBCL IkBa-CBG/CBR dual luciferase ratio (green luciferase fused to IkBa over red control in OCI-Ly3 lymphoma cells), 4 h; measured here: control luc red channel unless noted
# Method in brief: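 Curves were fitted separately to fusion (green), unfused (red) and ratio luminescence, then classed by r2, magnitude and activity. Cells: OCI-Ly3, 4 h compound plus doxycycline at 37C; 10 uM MG-132 defined full response.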
row,SMILES,AC50
1,Cc1nc2nc(NC(=O)C(C)(C)C)[nH]n2c(=O)c1Cc1ccccc1,"7.94 µM [rising, partial curve]"
2,CCN(CC)C(=O)CSc1nc2cc3c(cc2c(=O)n1CCCCCC(=O)NCCc1ccc(OC)c(OC)c1)OCO3,"39.8 µM [rising, partial curve, poor fit]"
3,COc1ccc(CNC(=O)c2ccc3c(c2)N(Cc2ccccc2F)C(=O)c2ccccc2S3(=O)=O)cc1,"12.6 µM [falling, partial curve]"
4,CCOc1ccc(NC(=O)c2c(NCc3sccc3C)sc3c2CCCCC3)cc1,"31.6 µM [falling, partial curve]"
5,COCCNC(=O)CCc1c(C)nc2c(c(C)nn2-c2ccc(C)cc2)c1C,"25.1 µM [falling, single point]"
6,CCCN(CCC)c1nc(-c2ccccc2F)nc2ccccc12,"25.1 µM [falling, partial curve]"
7,O=C(CSc1nc2c([nH]c3ccccc32)c(=O)n1-c1ccc(F)cc1)NC1CCCCC1,"20 µM [falling, single point]"
8,O=C(COc1ccc([N+](=O)[O-])cc1)Nc1cccc2cccnc12,"1.58 µM [rising, full curve]"
9,CCCOc1ccc(C(=O)N2CCN(c3ccc(NC(=O)CC)cc3Cl)CC2)cc1,"25.1 µM [falling, partial curve]"
10,COCCNC(=O)c1cccc(Nc2nc3ccccc3n3nnnc23)c1,"0.0158 µM [rising, full curve, poor fit]"
11,CC1CCc2c(sc(NC(=O)c3ccc(Cl)cc3Cl)c2C#N)C1 (centres undefined),"2 µM [falling, full curve]"
12,O=C1N(Cc2cccc(C(F)(F)F)c2)c2ccccc2S(=O)(=O)N1c1cccc(Cl)c1,"20 µM [falling, single point]"
13,Cc1c(Cl)cccc1N1C(N)=C(C#N)C(c2cc(CN3CCOCC3)cs2)C2=C1CCCC2=O (centres undefined),"15.8 µM [falling, partial curve]"
14,Cc1ccc(NC(=O)Cn2cnc3nc4c(cc3c2=O)CCCC4)cc1Cl,"3.98 µM [falling, partial curve, poor fit]"
15,CCOc1ccc(S(=O)(=O)c2cn(Cc3ccccc3)c3ccc(OCC)cc3c2=O)cc1,"7.94 µM [falling, partial curve]"
16,CCc1ccc(S(=O)(=O)Nc2cccc(-c3ccc(N4CCC(C)CC4)nn3)c2)s1,"2.51 µM [falling, full curve]"
17,CC(C)(C)OC(=O)N1CCC(c2c(C(=O)NCc3ccco3)cnn2-c2ccccc2)CC1,"25.1 µM [falling, partial curve]"
18,CCc1ccc(CNC(=O)c2cnc3sc(N4CCCCC4)nn3c2=O)cc1,"12.6 µM [rising, partial curve, poor fit]"
19,CCn1c(=O)cc(SCC(=O)NCc2ccccc2OC)c2ccccc21,"15.8 µM [falling, partial curve]"
20,Nc1cc(C(=O)O)ccc1Nc1ccccc1,"6.31 µM [falling, partial curve]"

# Filtered by structure: those above containing an NH in an aromatic ring.
row,SMILES,AC50
1,Cc1nc2nc(NC(=O)C(C)(C)C)[nH]n2c(=O)c1Cc1ccccc1,"7.94 µM [rising, partial curve]"
7,O=C(CSc1nc2c([nH]c3ccccc32)c(=O)n1-c1ccc(F)cc1)NC1CCCCC1,"20 µM [falling, single point]"

# Following part

row,SMILES,AC50
1,Cc1cccc(C(=O)NC(=O)Nc2ccc(-c3cc(C(F)(F)F)nn3-c3ccccc3)cc2)c1,"0.398 µM [falling, full curve]"
2,O=C(Cn1cc(C(=O)c2ccco2)c2ccccc21)Nc1ccccc1Cl,"0.251 µM [falling, full curve, poor fit]"
3,CCOC(=O)c1sc2ccccc2c1S(=O)(=O)N1CCN(c2cccc(C)c2C)CC1,"15.8 µM [falling, partial curve]"
4,COc1cc(NC(=O)C2CCCN(S(=O)(=O)c3ccc4c(c3)CCCC(=O)N4)C2)cc(OC)c1 (centres undefined),"25.1 µM [falling, single point]"
5,COc1cc(Cl)c(C)cc1NC(=O)Cn1ncc2c(=O)oc3ccccc3c21,"25.1 µM [rising, partial curve]"
6,CCCCOc1ccc(C2C3CN(C(=O)OCC)CC=C3C(C#N)=C(N)C2(C#N)C#N)cc1OC (centres undefined),"5.01 µM [falling, full curve, poor fit]"
7,CCC(C)n1c(=O)c(C(=O)Nc2ccccc2S(N)(=O)=O)c(O)c2ccccc21 (centres undefined),"7.94 µM [falling, partial curve]"
8,Cc1nn2c(C)c(C(=O)N3CCN(c4ccccc4)CC3)cnc2c1-c1ccccc1,"25.1 µM [falling, single point]"
9,Cc1ccc(CCNC(=O)c2cc3c(=O)oc4ccccc4c3s2)cc1,"0.00794 µM [falling, full curve, poor fit]"
10,COc1cc(OC)cc(C(=O)Nc2ccc3oc(-c4ccccc4C)nc3c2)c1,"7.94 µM [falling, full curve]"
11,CC(C)CNc1nc(NC(C)(C)C)nc(Oc2ccc(=O)n(-c3ccccc3)n2)n1,"31.6 µM [falling, single point]"
12,Cc1ccc(N(C)C(=O)Cn2cnc3onc(-c4ccc(F)cc4)c3c2=O)cc1C,"20 µM [falling, single point]"
13,COc1ccc(CCNC(=O)CCCn2c(=O)c3ccccc3n(Cc3ccc(C)cc3)c2=O)cc1OC,"3.98 µM [rising, single point]"
14,CN1CCN(C(=O)CSc2nc(-c3cccs3)cc(-c3cccs3)c2C#N)CC1,"15.8 µM [falling, partial curve]"
15,CC(C)OCCCNC(=O)CCCn1c(=O)[nH]c2ccsc2c1=O,"0.0251 µM [falling, partial curve, poor fit]"
16,Cc1cc(C)cc(Nc2cc(C(=O)NCCCN(Cc3ccccc3)C(C)C)c3ccccc3n2)c1,"7.94 µM [falling, full curve]"
17,CCOc1ccc(CNC(=O)c2cc(=O)[nH]c3ccc(S(=O)(=O)N4CCCCC4)cc23)cc1,"0.316 µM [rising, full curve]"
18,CCN(Cc1ccccc1)C(=O)Cn1c(=O)n(-c2ccc(F)c(Cl)c2)c(=O)c2sc3ccccc3c21,"10 µM [falling, partial curve]"
19,CCC(C)(C)n1nnnc1C(c1cc2ccc(OC)cc2[nH]c1=O)N1CCc2ccccc21 (centres undefined),"20 µM [falling, partial curve]"

# Source: PubChem BioAssay AID445 (National Center for Advancing Translational Sciences (NCATS), 2006)
